SMILES strings stand for the structures. Certain results were filed several times, with different values. Only these are listed. There may be further records. Results that share an entry differ, and nothing given here explains why; dose, time, organism, isomer or construct need not be as stated for each record.

By UniProt entry, the sequences of proteins in these tests, tags left out.
UniProt P33535, whole entry: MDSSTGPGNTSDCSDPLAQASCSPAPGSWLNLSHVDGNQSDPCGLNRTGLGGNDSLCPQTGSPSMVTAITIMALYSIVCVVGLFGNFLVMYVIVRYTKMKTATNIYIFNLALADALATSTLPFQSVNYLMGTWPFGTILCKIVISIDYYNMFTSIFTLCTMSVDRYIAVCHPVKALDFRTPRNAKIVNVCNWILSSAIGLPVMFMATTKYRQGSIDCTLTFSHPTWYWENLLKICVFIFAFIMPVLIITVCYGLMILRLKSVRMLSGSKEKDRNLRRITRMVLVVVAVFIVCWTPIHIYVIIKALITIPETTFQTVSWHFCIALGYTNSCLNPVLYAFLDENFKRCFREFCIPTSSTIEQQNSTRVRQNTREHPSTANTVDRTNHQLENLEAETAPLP

By Ki is commonly meant a dissociation constant, usually derived from enzyme kinetics or from competition with a known ligand.

In this experiment the target is mu opioid receptor (Rattus norvegicus, UniProt P33535). Nature of the experiment: Rat brain mu opioid receptor binding assay ([3H]DAMGO). To be noted: read-out: MOR Ki; Rat mu opioid receptor binding constant; rat forebrain membranes, ~0.8 nM [3H]DAMGO.

On to `c1ccc2c(c1)Oc1cc(-c3nnn[nH]3)ccc1C2=C1CC2CCC(C1)N2` (single isomer, unassigned), for which the Ki was 7.52 µM and 2.57 µM. `Oc1cccc2c1Oc1cc(-c3nnn[nH]3)ccc1C2=C1CC2CCC(C1)N2` [Cpd 90]: the Ki was 0.7 nM and 6 nM.

For the origin of these results see patent US20060030585A1, “Tricyclic delta-opioid modulators” (priority 2004, published 2006).
